Among all 320,000 compounds or so, about 2,100 (0.66%) were called active. Inconclusive results, whose numbers are uncertain, are shown with a selection of clear calls. The call rests on the fitted dose curve; in most records, active means well fitted inhibition curve with a large enough effect in the signal ratio, with a control signal flat (not every such curve was filed as active); inconclusive means small, poorly fitted or top-dose-only effect, or effect the other way, or a change in a side signal; inactive means flat fitted curve, though single readings scatter; the % refers to the signal ratio. Potencies beside an inconclusive call are fits to weak or partial responses and may not hold up.
Test: qHTS Assay for Lipid Storage Modulators in Drosophila S3 Cells
Details: BODIPY lipid droplet fluorescence, 18-24 h, cells fed with added oleic acid; lipid storage change, negative = inhibition: at 46.1 µM (top of the series) unless noted
Summary of the method: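 Drosophila S3 cells loaded with oleic acid (400 uM, as added) and compounds at several concentrations; lipid droplets imaged by 488-nm laser-scanning cytometry, 500–530 nm intensity and object ratio to cell channel. Percent activity normalized to 20 uM Triacsin C.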
With `CNS(=O)(=O)c1cc(O)c2c(S(=O)(=O)NC)cccc2c1` the lipid storage change, negative = inhibition was inconclusive: 8.38%.
With `O=C(NCc1cccnc1)c1ccc(COc2ccccc2Br)o1` the Potency was inconclusive: 1.84 µM [activator, partial curve].
In the case of `N#Cc1ccc(COC(=O)c2cnc3ccccc3n2)cc1`, the lipid storage change, negative = inhibition is reported as inconclusive: 42.5%.
For `CCOc1cc(/C=C2\N=C(C)OC2=O)cc(Br)c1OCC(=O)OC`, the lipid storage change, negative = inhibition was inconclusive: -41.1%.
With `Cn1ccnc1SCC(=O)NC1(C#N)CCCCC1` the lipid storage change, negative = inhibition was “inconclusive”.
In the case of `Cc1ccc(N2C(=O)c3cccc4c(Oc5ccccc5[N+](=O)[O-])ccc(c34)C2=O)c(C)c1`, the lipid storage change, negative = inhibition is reported as inconclusive: 23.9%.
In the case of `COC(=O)c1c(-c2ccc(Br)cc2)csc1NC(=O)Cc1ccc(OC)c(OC)c1`, the Potency is reported as inconclusive: 7.31 µM [activator, partial curve].
In the case of `O=C(c1ccccc1)N1CCN(C(=S)NCc2ccc3c(c2)OCO3)CC1`, the Potency is reported as inconclusive: 9.2 µM [activator, partial curve, poor fit].
For `O=C(Nc1ccc(Oc2ccc(NC(=O)C3CCCO3)cc2)cc1)C1CCCO1` (stereo not given), the lipid storage change, negative = inhibition was inconclusive: 11%.
With `Cc1ccsc1C(=O)NCCc1c[nH]c2ccccc12` the lipid storage change, negative = inhibition was inconclusive: -11.8%.
With `O=C(NC(=O)N1CCCCC1)c1ccc(Cl)cc1` the lipid storage change, negative = inhibition was inconclusive: 25.7%.
With `Cc1csc(NC(=O)CSc2ncn(-c3ccccc3)n2)n1` the Potency was inconclusive: 16.4 µM [falling, single point].
With `Nc1c(C(=O)N/N=C/c2cccnc2)oc2nc(-c3ccco3)cc(-c3ccco3)c12` the lipid storage change, negative = inhibition was inconclusive: -5.8%.
In the case of `N#CC1(c2ccccc2)CCC(NCCc2ccccc2)CC1` (stereo not given), the lipid storage change, negative = inhibition is reported as inconclusive: 31.4%.
In the case of `O=C(COC(=O)C1CCC(N2C(=O)C3C4CCC(C4)C3C2=O)CC1)c1ccc(F)cc1` (stereo not given), the Potency is reported as inconclusive: 23.1 µM [falling, partial curve, poor fit].
With `O=C(Cc1cccs1)Nc1ccccc1-c1nc2ccccc2[nH]1` the lipid storage change, negative = inhibition was inconclusive: -33.5%.
With `CCCOc1ccc(/C=C/C(=O)NC2CCCCC2)cc1` the lipid storage change, negative = inhibition was inconclusive: -11.1%.
For `O=C(Nc1cc([N+](=O)[O-])ccc1N1CCCC1)c1ccco1`, the lipid storage change, negative = inhibition was inconclusive: 11.1%.
In the case of `CCOc1ccc(C(=O)Nc2ccc(NC(=O)c3ccccc3)c(C)c2)cc1[N+](=O)[O-]`, the Potency is reported as inconclusive: 0.164 µM [falling, full curve, poor fit].
In the case of `O=C(NC1CCCCC1)C(c1ccccc1F)N(Cc1ccco1)C(=O)c1ccccn1` (stereo not given), the lipid storage change, negative = inhibition is reported as inconclusive: -53%.
For `Cc1ccc(OCC(=O)Nc2ccc(NC(=O)c3cccs3)cc2)c(C)c1`, the lipid storage change, negative = inhibition was inconclusive: -5.86%.
For `CC1=CCC2(CO)COC(c3ccccc3O)C1C2` (stereo not given), the lipid storage change, negative = inhibition was inconclusive: -7.76%.
With `Cc1cc(NC(=O)Cc2cn3ccsc3n2)n(-c2ccccc2)n1` the lipid storage change, negative = inhibition was inconclusive: -17.2%.
In the case of `CCOC(=O)C1CCN(S(=O)(=O)c2cnc[nH]2)CC1`, the lipid storage change, negative = inhibition is reported as inconclusive: -9.34%.
For `Cc1ccc(OCCn2cnc3c(N)ncnc32)cc1`, the lipid storage change, negative = inhibition was inconclusive: 6.27%.
For `COCc1c(C(=O)N/N=C(/C)c2ccccc2)nnn1-c1nonc1N`, the lipid storage change, negative = inhibition was inconclusive: -7.11%.
For `COc1ccc(CCNC(=O)CC2Nc3ccccc3NC2=O)cc1` (stereo not given), the lipid storage change, negative = inhibition was inconclusive: 33%.
With `CC(=O)N1c2ccccc2[C@H](C)[C@H]1C` the lipid storage change, negative = inhibition was inconclusive: 43.2%.
For `COc1ccc2c(c1)Cc1sc(NC(=O)c3ccco3)nc1-2`, the lipid storage change, negative = inhibition was inconclusive: -26.8%.
With `Cc1ccccc1OCC(=O)NCCN(C)C` the lipid storage change, negative = inhibition was inconclusive: 0.626%.
For `Cc1cc(C)c2c(=O)cc(C(=O)NCc3ccccc3)oc2c1`, the lipid storage change, negative = inhibition was inconclusive: 12.4%.
In the case of `CC1CCN(c2ccc(NC(=O)C3CCCN3S(=O)(=O)c3ccc(F)cc3)cc2)CC1` (stereo not given), the lipid storage change, negative = inhibition is reported as inconclusive: -7.62%.
For `COc1cc(C(=O)NC(=S)Nc2cccc(-c3cc4ccccc4oc3=O)c2)cc(OC)c1OC`, the lipid storage change, negative = inhibition was inconclusive: -21.1%.
In the case of `Nc1c(-c2ccccc2)c(CSc2nc3ccccc3[nH]2)nn1-c1cccc(C(=O)O)c1`, the lipid storage change, negative = inhibition is reported as inconclusive: 9.22%.
In the case of `O=C1CCCCCN1CP(=O)(O)CN1CCOCC1`, the lipid storage change, negative = inhibition is reported as inconclusive: -16.6%.
For `CC(C)c1ccc(NC(=O)NCc2ccc3c(c2)OCO3)cc1`, the lipid storage change, negative = inhibition was inconclusive: 16.2%.
In the case of `O=C(/C=C/c1ccccc1)NC(=S)Nc1ccccc1C(=O)NC1CCCCC1`, the Potency is reported as inconclusive: 29.1 µM [falling, single point].
With `CN(c1ccc(C(=O)N2CCOCC2)cc1)S(=O)(=O)c1cccs1` the Potency was inconclusive: 29.1 µM [activator, single point].
With `Cc1ccccc1C(=O)O/N=C(\N)c1ccccc1` the lipid storage change, negative = inhibition was inconclusive: 10.5%.
With `CCOc1ccc2nc(-c3ccc(OC)c(OC)c3)cc(C(=O)O)c2c1` the Potency was inconclusive: 29.1 µM [falling, single point].
For `CCOCC(=O)Nc1cccc(-c2nc3cccnc3s2)c1C`, the lipid storage change, negative = inhibition was inconclusive: 9.73%.
With `CSc1nnc(C)c(=O)n1COC(=O)c1ccc(S(=O)(=O)N(C)C)cc1` the lipid storage change, negative = inhibition was inconclusive: -2.41%.
With `COCc1cccc(C2=CC(=O)C[C@H](c3ccc(OC)cc3)C2)c1` the lipid storage change, negative = inhibition was inconclusive: 1.85%.
For `Cc1ccc(NC(=S)NCc2ccccc2)cc1S(=O)(=O)N1CCCCC1`, the Potency was inconclusive: 29.1 µM [falling, partial curve, poor fit].
With `CN(C)S(=O)(=O)c1cccc(C(=O)Nc2ccc(Cl)cn2)c1` the lipid storage change, negative = inhibition was inconclusive: 5.88%.
For `Cn1c2ccccc2c2nnc(SCc3ccc4nonc4c3)nc21`, the lipid storage change, negative = inhibition was inconclusive: 31.3%.
In the case of `COc1ccc(/C=C2\SC(=O)N(CCNC(=O)C3=COCCO3)C2=O)cc1`, the lipid storage change, negative = inhibition is reported as inconclusive: 20.7%.
With `Cc1ccc(S(=O)(=O)NCC(C)n2nc(C)cc2C)cc1` (stereo not given) the Potency was inconclusive: 14.6 µM [activator, partial curve].
For `CC1(C(=O)OCC(=O)Nc2nnc(-c3ccccc3)o2)CC1(Cl)Cl` (stereo not given), the lipid storage change, negative = inhibition was “inconclusive”.
In the case of `CN1C(=O)/C(=C\c2ccc(N(C)C)cc2)OC1=S`, the Potency is reported as inconclusive: 3.26 µM [falling, full curve].
In the case of `Cc1ccc(S(=O)(=O)N2CCOCC2)cc1NC(=O)COC(=O)CNC(=O)c1ccc(Oc2ccccc2)cc1`, the lipid storage change, negative = inhibition is reported as inconclusive: -2.98%.
In the case of `O=C(COC(=O)C1CCC1)Nc1ccc(OC(F)F)cc1`, the lipid storage change, negative = inhibition is reported as inconclusive: -5.19%.
In the case of `CCOC(=O)C1(Cc2cccc(OC)c2)CCN(Cc2cccc(OCC)c2O)CC1`, the Potency is reported as inconclusive: 0.103 µM [falling, full curve, poor fit].
With `CCN(CC(=O)Nc1ccccc1C(F)(F)F)C(=O)c1ccccc1SCC(=O)N1CCCC1` the lipid storage change, negative = inhibition was inconclusive: -27.9%.
In the case of `COc1ccc(-n2nnnc2SCC(=O)Nc2cccc(O)c2)cc1`, the lipid storage change, negative = inhibition is reported as inconclusive: 33.6%.
For `COc1ccc(N/C=C/C(=O)c2ccccc2)cc1`, the lipid storage change, negative = inhibition was inconclusive: -26.3%.
In the case of `Cc1cc(C)n2nc(CC(=O)NC3CCCCCC3)nc2n1`, the lipid storage change, negative = inhibition is reported as inconclusive: -0.0439%.
In the case of `COC(=O)c1ccc(N(CC(=O)NC2CCCC2)C(=O)c2ccc(C)s2)cc1`, the lipid storage change, negative = inhibition is reported as inconclusive: 24.7%.
In the case of `Cc1ccc(Cn2nc(C)c(NC(=O)CCCn3nc(C)c([N+](=O)[O-])c3C)c2C)cc1`, the lipid storage change, negative = inhibition is reported as inconclusive: -32%.
For `CN1CCN(Cc2cc(=O)oc3cc4c(cc23)CCC4)CC1`, the lipid storage change, negative = inhibition was inconclusive: 28.4% [at 9.22 µM].
For `CC(=O)N1N=C(c2ccc(NS(=O)(=O)c3ccccc3)cc2)CC1c1ccco1` (stereo not given), the Potency was active: 9.2 µM.
In the case of `C=CCOc1c(Cl)cc(CNCCC)cc1Cl`, the lipid storage change, negative = inhibition is reported as inconclusive: 8.13%.
In the case of `CCOC(=O)CC(NC(=O)C(CC)c1ccccc1)c1ccccc1Cl` (stereo not given), the lipid storage change, negative = inhibition is reported as inconclusive: -26.7%.
For `O=[N+]([O-])c1ccc(S(=O)(=O)Nc2ccc3c(c2)OCCO3)cc1`, the lipid storage change, negative = inhibition was inconclusive: 20.1%.
With `Cc1ccc(C(=O)/C=C/C(=O)O)cc1` the Potency was inconclusive: 20.6 µM [cytotoxic, partial curve].
With `CC(=O)NCCc1cnc[nH]1` the lipid storage change, negative = inhibition was inconclusive: 11.6%.
In the case of `O=C1C2=C(C(=O)c3ccccc31)C1O[C@](CCCCN3C(=O)c4ccccc4C3=O)(Cc3c1ccc1ccccc31)O2`, the lipid storage change, negative = inhibition is reported as inconclusive: 3.58% [at 9.22 µM].
In the case of `CC1CCCCN1CC(=O)NC(c1ccccc1)c1ccccc1` (stereo not given), the lipid storage change, negative = inhibition is reported as inconclusive: -4.65%.
For `Cc1nn(-c2ccccc2)c(Cl)c1C(=O)OCC(=O)NCCc1ccc(S(N)(=O)=O)cc1`, the lipid storage change, negative = inhibition was “inconclusive”.
With `O=C(CC(c1ccccc1)c1ccccc1)NCCOCc1ccccc1` the Potency was inconclusive: 20.6 µM [falling, partial curve].
With `Cc1ccc(NC(=O)C2CCN(S(=O)(=O)c3c(C)noc3/C=C/N(C)C)CC2)cc1` the Potency was inconclusive: 29.1 µM [activator, single point].
With `COc1cc(/C=N/NC(=O)C(=O)NCc2cccnc2)cc(OC)c1OC` the Potency was inconclusive: 0.651 µM [falling, single point].
In the case of `CCCS(=O)(=O)N1CCN(C(=O)c2cccnc2)CC1`, the “outcome” value is reported as “inactive [at 46.1 µM]”.
In the case of `COC(=O)c1ccccc1NC(=O)CSc1nc(NC(=O)c2ccccc2)c2c(C)c(C)oc2n1`, the Potency is reported as inconclusive: 0.731 µM [activator, partial curve].
With `Cc1cccc2c(=O)c(C(=O)N3CCCCCC3)c[nH]c12` the lipid storage change, negative = inhibition was inconclusive: 106%.
For `Cc1oc2c(c1C(=O)NCc1cc(C(=O)O)co1)CCCC2`, the lipid storage change, negative = inhibition was inconclusive: -16.6%.
For `CS(=O)(=O)C1=NSC2=NC(=O)/C(=C\c3ccc(-c4ccccc4)o3)C(=N)N21`, the lipid storage change, negative = inhibition was inconclusive: 7.05%.
In the case of `CNc1ccccc1C(C)(C)c1cc(-c2cccc(Br)c2)no1`, the Potency is reported as active: 1.46 µM.
In the case of `COCCNCC(=O)C12CC3CC(CC(C3)C1)C2`, the Potency is reported as active: 16.4 µM.
With `Cc1ccccc1Oc1nc2c(c(=O)n(C)c(=O)n2C)n1C` the lipid storage change, negative = inhibition was inconclusive: 12.3%.
On the % scale 0 is the no-effect control and ±100 the full control effect; potency means the concentration at half of the fitted maximal effect.
